For the assay, the target named is p27^kip Cdk inhibitor (human (endogenous in human primary preadipocytes)) (UniProt P46527). Description: co-IP; IP with anti-p27kip antibody (1:50) from cytoplasmic and nuclear fractions (NE-PER kit) of human primary preadipocytes transfected with empty vector, THRA or THRA K283Q/K288R, synchronised by serum withdrawal and re-fed serum for 9 h; immunoblot with anti-cyclin D1. For orientation: In western blotting, separated proteins are transferred to a membrane and probed.

Protein sequences, listed by entry. Tags and fused reporters are not part of them.
UniProt P46527: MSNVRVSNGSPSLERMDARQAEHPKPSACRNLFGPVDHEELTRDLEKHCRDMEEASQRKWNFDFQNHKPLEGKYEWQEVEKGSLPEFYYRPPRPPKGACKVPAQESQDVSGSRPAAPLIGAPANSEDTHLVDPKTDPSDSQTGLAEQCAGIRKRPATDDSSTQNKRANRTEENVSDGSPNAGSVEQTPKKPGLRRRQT
UniProt P24385: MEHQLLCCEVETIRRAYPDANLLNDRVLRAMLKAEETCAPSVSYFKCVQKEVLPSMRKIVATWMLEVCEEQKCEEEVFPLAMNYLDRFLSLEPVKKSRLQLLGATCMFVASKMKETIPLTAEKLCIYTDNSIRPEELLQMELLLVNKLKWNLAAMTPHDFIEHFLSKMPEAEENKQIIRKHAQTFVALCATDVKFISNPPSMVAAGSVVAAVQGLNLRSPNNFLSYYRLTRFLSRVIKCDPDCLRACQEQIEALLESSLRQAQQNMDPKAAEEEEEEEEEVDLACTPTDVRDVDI

Results on 1 substance are retold here after article PMC8677787.

Results are given in words; binding and its absence hold for the method and conditions named. Binding seen in cells or lysates may run through a third protein. Some entries that bind do so weakly or less than the wild type.

Take cyclin D1 (from UniProt P24385 1-295): the binding entry is given as “binds”.
